This assay can be described thus: qHTS Assay for Modulators of Lamin A Splicing. To be noted: HeLa LMNA splicing GFP/RFP minigene ratio, 48 h. A digest of the protocol:
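S3 HeLa cells stably expressing lamin A-EGFP splicing minigene plus DsRed2, 600 cells/well, 48 h compound exposure at 37C. Laser-scanning cytometry; analysed as GFP (500-530 nm)/RFP (575-640 nm) total intensity ratio; 0.5% DMSO vehicle.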
(In general: Quantitative high-throughput screening tests each substance at several concentrations.)

[1] abbreviates: measured here: GFP splicing reporter channel.
[2] abbreviates: measured here: RFP viability control channel.

Some of the results follow. These are further read-outs of the screen, such as a control signal, another cell line or another target. No call is given for them. Most of these compounds were active or inconclusive in the main read-out, so they are no random draw. The note in brackets gives the kind of curve behind each potency; many fits are weak.

For orientation: AC50 means the midpoint of the concentration-response curve, whichever way the signal moves. On to `Cc1cc(C(=O)OCC(=O)NCc2ccco2)c(C)n1-c1ccc(F)cc1`, for which the AC50 by setting is: under setting [1], 11.2 µM [rising, partial curve, poor fit]; under setting [2], 3.98 µM [rising, full curve].

For the compound `CCCc1nc(SCC(=O)N2CCc3ccccc3C2)c2ccccc2n1`, the AC50 is 14.1 µM [falling, single point] under setting [1] and 35.5 µM [falling, single point] under setting [2]. Turning to `O=C(/C=C/c1cccc2ccccc12)c1ccncc1`, the AC50 was 35.5 µM [falling, single point] under setting [1] and 2.51 µM [rising, partial curve, poor fit] under setting [2]. In the case of `CN(C1=C(NC(=O)c2ccccc2)C(=O)c2ccccc2C1=O)C1CCS(=O)(=O)C1` (stereo not drawn), the concentration at half-maximal activity (AC50) runs as follows: under setting [1], 35.5 µM [falling, partial curve]; under setting [2], 35.5 µM [falling, partial curve]. `COc1ccccc1NC(=O)CSc1nnc(-c2ccoc2C)n1CCc1ccccc1`: the AC50 was 2.24 µM [rising, full curve, poor fit] under setting [1] and 5.01 µM [rising, partial curve] under setting [2]. On to `Cc1ccc(NC(=O)CSCc2cc(=O)c3ccccc3[nH]2)c(C)c1`, for which, under setting [1], the AC50 was 0.282 µM [rising, full curve].

Consider `CCOc1ccccc1NC(=O)c1cc(S(=O)(=O)N2CCC3(CC2)OCCO3)ccc1F`, for which the AC50 is, setting by setting: under setting [1], 28.2 µM [rising, partial curve, poor fit]; under setting [2], 35.5 µM [rising, partial curve].

As for `COc1ccc(Oc2ncc3nc(C)c(=O)n(Cc4cccc(OC)c4)c3n2)cc1`, the AC50 under setting [1] is 20 µM [falling, single point]. With `Fc1ccc(-n2cc(CNCCc3ccccn3)c(-c3ccccc3Cl)n2)cc1`, the AC50 under setting [1] was 14.1 µM [falling, single point] and the AC50 under setting [2] is 35.5 µM [falling, single point]. As to `O=C(COC(=O)c1n[nH]c2ccccc12)Nc1ccc(Cl)cc1[N+](=O)[O-]`, the AC50 runs as follows: under setting [1], 12.6 µM [falling, partial curve]; under setting [2], 12.6 µM [falling, partial curve, poor fit]. Consider `Cn1c(=O)c2c(SCc3cccnc3)nc(CC(C)(C)C)nc2n(C)c1=O`, for which the AC50 under setting [1] is 14.1 µM [rising, single point].

Regarding `Cc1onc(-c2c(F)cccc2Cl)c1C(=O)NCc1ccccn1`, the AC50 under setting [2] is 35.5 µM [rising, single point]. As for `COc1ccc(C2C(C(=O)/C=C/c3ccco3)=C(O)C(=O)N2CCN2CCOCC2)cc1` (stereo not drawn), the AC50 under setting [1] was 0.0224 µM [rising, full curve, poor fit]. On the same count and under the same terms, in the case of `CCOc1ccc(C(c2c(O)cc(C)n(Cc3ccco3)c2=O)N2CCN(C)CC2)cc1` (stereo not drawn) it was 0.794 µM [rising, partial curve, poor fit]. In the case of `Cc1ccc(-c2csc3nc(CSc4nnc(-c5ccc(Cl)cc5)n4C)[nH]c(=O)c23)cc1`, the AC50 under setting [1] is 14.1 µM [rising, single point] and the AC50 under setting [2] is 35.5 µM [rising, single point]. Consider `CC(Nc1oc(-c2ccc(COc3ccccc3)o2)nc1C#N)c1ccccc1` (stereo not drawn), for which the AC50 reads like this: under setting [1], 35.5 µM [falling, single point]; under setting [2], 28.2 µM [falling, single point]. Take `S=C(NCc1cccs1)Nc1ccc(Cl)cc1`: the AC50 was 17.8 µM [rising, partial curve, poor fit] under setting [1] and 15.8 µM [rising, partial curve] under setting [2]. As for `COc1ccccc1-c1cc(C(=O)Nc2cccnc2)no1`, the AC50 reads like this: under setting [1], 11.2 µM [rising, partial curve, poor fit]; under setting [2], 2.24 µM [rising, full curve]. `Cc1ccnc(Sc2ccc([N+](=O)[O-])cc2[N+](=O)[O-])n1`: the AC50 under setting [1] is 15.8 µM [falling, single point].

Consider `CC1=C(C(=O)O)N2C(=O)[C@@H](NC(=O)[C@@H](N)c3ccc(O)cc3)[C@@H]2SC1`, for which the AC50 is, setting by setting: under setting [1], 0.0112 µM [falling, full curve]; under setting [2], 0.0126 µM [falling, full curve]. For `Cc1ccc2nc(SCC(=O)c3c(C)[nH]c4ccccc34)[nH]c2c1`, the AC50 under setting [2] was 14.1 µM [rising, single point]. On the same count and under the same terms, for `O=C(CN1C(=O)c2cccc3cccc(c23)C1=O)N1CCCCC1` the value was 0.0224 µM [rising, full curve, poor fit].

Turning to `Cc1cc(C)cc(NC(=O)c2oc3ccccc3c2COc2ccccc2)c1`, the AC50 under setting [1] was 20 µM [rising, single point] and the AC50 under setting [2] is 25.1 µM [rising, single point]. With `CCOc1ccc2[nH]c(=O)c(CN(CCO)C(=O)c3ccccc3F)cc2c1`, the AC50 under setting [2] was 15.8 µM [rising, single point]. As for `N=c1ccn(Cc2cccc(Cl)c2)cc1`, the AC50 under setting [1] is 12.6 µM [rising, partial curve, poor fit] and the AC50 under setting [2] is 15.8 µM [rising, single point]. Consider `Cc1ccc(NN2C(=O)C=C(c3ccc(Cl)cc3)C2=O)cc1`, for which the AC50 is, setting by setting: under setting [1], 35.5 µM [falling, single point]; under setting [2], 25.1 µM [falling, single point].

Turning to `NCCCC[C@@H]1NC(=O)c2cc([N+](=O)[O-])cc(I)c2SC[C@@H](C(=O)NCC(N)=O)NC(=O)CNC1=O`, the AC50 under setting [1] is 0.282 µM [falling, partial curve, poor fit].

As for `O=S1(=O)OC(c2ccc(O)cc2)(c2ccc(O)cc2)c2ccccc21`, the AC50 runs as follows: under setting [1], 0.126 µM [rising, full curve, poor fit]; under setting [2], 35.5 µM [rising, single point]. As for `O=C(CSc1ccc(-c2ccccc2)nn1)Nc1ccc2c(c1)OCCO2`, the AC50 under setting [2] is 22.4 µM [rising, single point]. Same read-out and setting: for `Cc1nn(Cc2ccc(Cl)cc2)c(C)c1NC(=O)Cn1nc([N+](=O)[O-])c(Cl)c1C` the value was 20 µM [falling, partial curve]; for `CC[n+]1ccc(/C=C2\Sc3ccccc3N2CCCS(=O)(=O)[O-])c2ccccc21`, 0.0224 µM [falling, full curve, poor fit]; for `COc1cccc(C(=O)Nn2cnnc2)c1`, 28.2 µM [falling, partial curve, poor fit]. Take `CCN(CC)S(=O)(=O)c1ccc(/C=C/C(=O)Nc2ccc(F)c(F)c2F)cc1`: the AC50 under setting [1] was 3.98 µM [rising, single point] and the AC50 under setting [2] is 2.82 µM [rising, full curve]. As for `c1ccc2c(Cn3nnc4ccccc43)cccc2c1`, the AC50 under setting [2] was 25.1 µM [rising, single point].

With `Cc1ccc(C(=O)NCCc2csc(-c3cccc(F)c3)n2)cc1C`, the AC50 under setting [1] is 11.2 µM [falling, partial curve, poor fit]. Take `COc1ccc(NC(=S)Nc2ccc(OCc3ccccc3)cc2)cc1OC`: the half-maximal activity concentration (AC50) is 12.6 µM [rising, single point] under setting [1] and 25.1 µM [rising, single point] under setting [2].

`COc1cc2c(cc1OC)C(COc1cc(C)cc(C)c1)N(C(=O)C(C)(C)C)CC2` (stereo not drawn): the AC50 under setting [2] is 20 µM [rising, single point]. `Cc1ccc(C(c2sc3nc(-c4ccco4)nn3c2O)N2CCN(c3ccc(F)cc3)CC2)cc1` (stereo not drawn): the AC50 under setting [1] was 35.5 µM [falling, single point]. For the compound `CCCCCCOC(=O)C(C#N)c1nc2ccccc2nc1N1CCN(CC)CC1` (stereo not drawn), the half-maximal activity concentration (AC50) under setting [1] is 35.5 µM [falling, single point] and the AC50 under setting [2] was 28.2 µM [falling, partial curve]. `Cc1oc(-c2cccc(Cl)c2)nc1Cn1c(SCc2ccc(F)cc2)nc2cccnc21`: the AC50 under setting [2] was 35.5 µM [rising, single point].

Take `O=S(=O)(Cc1cc(NCc2ccccc2)nc(-c2ccccn2)n1)c1ccccc1`: the AC50 under setting [1] is 11.2 µM [falling, partial curve].

As to `CC1CCCN(c2nc3c(c(=O)[nH]c(=O)n3C)n2CCSc2nc3ccccc3o2)C1` (stereo not drawn), the AC50 under setting [2] is 0.501 µM [falling, full curve, poor fit].

For `Cc1ccc(C2CC(=O)Nc3c2c(C)nn3-c2nc(C)cc(C)n2)c(C)c1` (stereo not drawn), the AC50 by setting is: under setting [1], 5.01 µM [falling, full curve]; under setting [2], 5.62 µM [falling, full curve]. With `O=C1N=C(N2CCN(c3ccccc3)CC2)SC1Cc1ccccc1` (stereo not drawn), the AC50 under setting [2] was 35.5 µM [rising, single point].

As to `COC(=O)c1ccc(C2N=C(c3cccs3)CC(c3ccccc3O)N2)cc1` (stereo not drawn), the AC50 was 12.6 µM [falling, partial curve] under setting [1] and 14.1 µM [falling, single point] under setting [2]. `Cc1cc2n(n1)CCCN2C(=O)Nc1ccccc1C(F)(F)F`: the AC50 under setting [2] is 11.2 µM [rising, partial curve, poor fit]. In the case of `COc1ccc(-c2c(N)nnc3c2[nH]c2ccccc23)cc1OC`, the AC50 was 6.31 µM [falling, single point] under setting [1] and 2.24 µM [falling, partial curve, poor fit] under setting [2]. On to `CC(C)Cc1ccc(S(=O)(=O)N2CCN(C(=O)c3ccco3)CC2)cc1`, for which the AC50 is 11.2 µM [rising, partial curve, poor fit] under setting [1] and 15.8 µM [rising, partial curve] under setting [2]. On to `CCCCCCOC(=O)CCn1[nH]c(=O)c2ccccc2c1=O`, for which, under setting [2], the half-maximal activity concentration (AC50) is 14.1 µM [rising, single point]. Regarding `O=C(CN1CCN(C(=S)NC2CCCC2)CC1)Nc1ccc(Oc2ccccc2)cc1`, under setting [2], the AC50 was 35.5 µM [rising, single point]. Take `COc1ccc(N/N=C(/N=Nc2nc(C)cc(=O)[nH]2)c2ccccc2)cc1`: under setting [2], the AC50 was 22.4 µM [rising, single point]. The same measure, in the same setting: for `Cc1cc2nc(C)c(Cl)c(=O)n2[nH]1` the value was 0.00316 µM [falling, full curve, poor fit]. For the compound `CCn1c(=O)c([N+](=O)[O-])c(Cl)c2ccccc21`, the AC50 is 6.31 µM [falling, partial curve] under setting [1] and 14.1 µM [falling, partial curve] under setting [2].

The values above are taken from PubChem BioAssay AID1487 (National Center for Advancing Translational Sciences (NCATS), 2009).
